Taken from: PubChem BioAssay AID504764 (Drosophila RNAi Screening Center, 2011)
The deposit covers about 22,000 reagents; below is a random part of those that have a named target and a result. Over the whole deposit, 403 (1.9%) are marked active. 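Unnormalised raw counts per well; ratio z-scores behind the hit calls and whether each hit raises or lowers signal are not deposited.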 The numbers tell different reagents against one gene apart. Names joined by + are all predicted targets of the reagent. The record does not give: the amount of reagent.

Test: 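Knock-downs that raise or lower a Notch target reporter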 (primary screen)
Cells: Drosophila Kc167 cells
Knock-down reagent: long dsRNA against Drosophila genes
Duration: about 5 days (4 days dsRNA, then 24 h after transfection)
Conditions: transfection of constitutively active membrane-tethered Notch lacking the extracellular domain, read 24 h later
Read-out: 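Firefly luciferase from an E(spl)m3 reporter with active Notch, plus control-promoter and uninduced reporter wells for normalisation; unnormalised counts, duplicate wells a and b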
Scale: induced reporter light, run 1, well a and induced reporter light, run 1, well b: higher = more light from the Notch target reporter with active Notch; control promoter light, run 1, well a and control promoter light, run 1, well b: higher = more light from the viral control promoter (cell number, transfection, viability); uninduced reporter light, run 1, well a: higher = more light from the Notch target reporter without active Notch
Active means: 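Hit if the duplicate-averaged log2 ratio of induced to control-promoter light gives a plate-wise z beyond ±2, or induced to uninduced beyond ±1.8; weak-control or discordant-duplicate wells dropped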
Meaning of the calls: active = modifier hit (raised or lowered Notch signal); inactive = not a hit

gene | reagent no. | induced reporter light, run 1, well a | induced reporter light, run 1, well b | control promoter light, run 1, well a | control promoter light, run 1, well b | uninduced reporter light, run 1, well a | outcome
ato (atonal) | 1 | 75985 | 1.02e5 | 81995 | 73175 | 7425 | inactive
Mat89Ba (Maternal transcript 89Ba) | 1 | 1.74e5 | 1.99e5 | 2.57e5 | 2.39e5 | 13515 | inactive
CG42323 | 1 | 60410 | 71615 | 69240 | 58745 | 8265 | inactive
CG42323 | 2 | – | – | – | – | – | inactive
ND-B17.2 (NADH dehydrogenase (ubiquinone) B17.2 subunit) | 1 | 1.32e5 | 1.44e5 | 1.15e5 | 66975 | 9330 | inactive
svr (silver) | 1 | 58480 | 69855 | 88105 | 87855 | 5610 | inactive
svr (silver) | 2 | 1.33e5 | 1.23e5 | 1.65e5 | 1.95e5 | 9005 | inactive
pippin | 1 | 1.86e5 | 1.92e5 | 2.02e5 | 2.05e5 | 13830 | inactive
para (paralytic) | 1 | 92910 | 91985 | 95365 | 91660 | 7360 | inactive
para (paralytic) | 2 | 98120 | 88670 | 95290 | 82465 | 13760 | inactive
Ggamma1 (G protein gamma subunit 1) | 1 | 1.06e5 | 1.07e5 | 1.21e5 | 83360 | 8265 | inactive
CG12848 | 1 | 2.42e5 | 2.40e5 | 2.09e5 | 1.92e5 | 17145 | inactive
CG15650 | 1 | 55020 | 32460 | 41020 | 41395 | 1775 | inactive
CG6357 | 1 | 1.61e5 | 1.59e5 | 1.62e5 | 1.53e5 | 13640 | inactive
Roc1b + Cdc5 | 1 | 1.15e5 | 1.52e5 | 1.75e5 | 3.34e5 | 9980 | inactive
CG5254 | 1 | 1.02e5 | 1.13e5 | 1.75e5 | 1.84e5 | 8710 | inactive
Cep89 (Centrosomal protein 89kDa) | 1 | 72505 | 94795 | 97560 | 99465 | 8310 | inactive
CG9304 | 1 | 34625 | 32905 | 44120 | 52105 | 1925 | inactive
ppk30 (pickpocket 30) | 1 | 1.38e5 | 1.30e5 | 1.67e5 | 1.35e5 | 11415 | inactive
CG15345 (retired record) | 1 | 1.51e5 | 1.54e5 | 3.15e5 | 2.54e5 | 10305 | inactive
CG14245 | 1 | 1.26e5 | 1.28e5 | 1.83e5 | 1.73e5 | 10335 | inactive
CG34231 | 1 | 2.33e5 | 2.66e5 | 2.73e5 | 2.71e5 | 20840 | inactive
CG11426 | 1 | 31630 | 30760 | 43285 | 35500 | 2810 | inactive
CG32069 + Blos2 | 1 | 10915 | 12255 | 10505 | 3070 | 700 | inactive
Mct1 (Monocarboxylate transporter 1) | 1 | 1.13e5 | 1.09e5 | 1.77e5 | 2.00e5 | 10250 | inactive
CG31259 | 1 | 96530 | 1.04e5 | 98475 | 60650 | 5660 | inactive
CG10053 | 1 | 1.14e5 | 1.50e5 | 91090 | 89390 | 9385 | inactive
CG16711 | 1 | 1.63e5 | 1.53e5 | 2.18e5 | 2.54e5 | 10550 | inactive
CG14883 | 1 | 2.11e5 | 2.21e5 | 2.37e5 | 2.28e5 | 18775 | inactive
Had1 (beta Hydroxy acid dehydrogenase 1) | 1 | 1.01e5 | 65310 | 97475 | 97590 | 12870 | inactive
CG15877 | 1 | 1.01e5 | 1.18e5 | 1.59e5 | 1.61e5 | 5635 | inactive
AnxB9 (Annexin B9) | 1 | 1.64e5 | 1.71e5 | 2.22e5 | 2.24e5 | 14885 | inactive
dmpd (dampened) | 1 | 92905 | 93160 | 1.03e5 | 89720 | 8125 | inactive
CG1941 | 1 | 2.23e5 | 1.77e5 | 2.41e5 | 2.27e5 | 15942 | inactive
CG14441 | 1 | 10510 | 15240 | 24940 | 20650 | 3892 | inactive
CG2017 | 1 | 1.02e5 | 97580 | 75420 | 76165 | 9245 | inactive
CG13157 | 1 | 95950 | 1.04e5 | 1.35e5 | 1.42e5 | 9565 | inactive
CG1889 | 1 | 1.91e5 | 1.88e5 | 2.28e5 | 2.33e5 | 12380 | inactive
CG3566 | 1 | 1.55e5 | 1.84e5 | 4.05e5 | 2.83e5 | 12905 | inactive
CG12971 | 1 | 1.22e5 | 1.32e5 | 92760 | 93580 | 7585 | inactive
vih (vihar) | 1 | 1.46e5 | 1.19e5 | 2.74e5 | 2.31e5 | 9475 | active
CG11523 | 1 | 1.37e5 | 1.29e5 | 86445 | 96730 | 9125 | inactive
Su(var)2-10 (Suppressor of variegation 2-10) | 1 | 87430 | 82810 | 1.00e5 | 1.17e5 | 7192 | inactive
CG16890 | 1 | 2.63e5 | 1.94e5 | 1.92e5 | 2.06e5 | 17100 | inactive
CG4988 | 1 | 1.57e5 | 1.73e5 | 1.02e5 | 1.40e5 | 18550 | inactive
pes (peste) | 1 | 1.51e5 | 1.76e5 | 1.01e5 | 1.19e5 | 21150 | inactive
CG33263 | 1 | 1.23e5 | 1.08e5 | 1.56e5 | 1.44e5 | 12415 | inactive
CG15888 | 1 | 2.55e5 | 2.55e5 | 2.37e5 | 2.52e5 | 21065 | inactive
pst (pastrel) | 1 | 1.33e5 | 1.32e5 | 1.40e5 | 82250 | 14935 | inactive
CG17472 | 1 | 44595 | 28960 | 43615 | 26815 | 1090 | inactive
HIP + HIP-R | 1 | 1.66e5 | 2.13e5 | 2.17e5 | 2.43e5 | 11525 | inactive
UbcE2M (NEDD8-conjugating enzyme UbcE2M) | 1 | 1.22e5 | 1.06e5 | 79035 | 84735 | 12465 | inactive
red (red Malpighian tubules) | 1 | 13645 | 13965 | 9250 | 8600 | 6265 | inactive
sta (stubarista) | 1 | 58755 | 48545 | 65935 | 72030 | 3610 | inactive
Sirt4 (Sirtuin 4) | 1 | 1.50e5 | 1.32e5 | 2.42e5 | 2.49e5 | 10410 | inactive
Sras (severas) | 1 | 2.37e5 | 2.92e5 | 3.05e5 | 3.16e5 | 15020 | inactive
CG42490 (retired record) | 1 | 64615 | 72510 | 76010 | 67425 | 7065 | inactive
PGRP-SA (Peptidoglycan recognition protein SA) | 1 | 1.42e5 | 1.27e5 | 2.07e5 | 2.08e5 | 10085 | inactive
CG32533 | 1 | 1.23e5 | 1.12e5 | 92125 | 85650 | 8790 | inactive
CG32533 | 2 | 76875 | 88275 | 95770 | 1.27e5 | 8875 | inactive
Droj2 (DnaJ-like-2) | 1 | 1.30e5 | 1.60e5 | 77400 | 60795 | 7460 | inactive
CG18210 (retired record) | 1 | 1.19e5 | 1.60e5 | 1.43e5 | 1.24e5 | 9220 | inactive
CG18210 (retired record) | 2 | 1.62e5 | 1.38e5 | 1.11e5 | 1.33e5 | 9015 | inactive
Gss1 + Gss2 | 1 | 1.21e5 | 1.09e5 | 1.09e5 | 1.08e5 | 13340 | inactive
Gss1 + Gss2 | 2 | – | – | – | – | – | inactive

Individual results from the entries so far:
Mct1 (Monocarboxylate transporter 1), uninduced reporter light, run 1, well a = 10250
PGRP-SA (Peptidoglycan recognition protein SA), outcome = inactive
Under “uninduced reporter light, run 1, well a”, pippin has 13830
Result for CG16711 under “outcome”: inactive
Had1 (beta Hydroxy acid dehydrogenase 1), control promoter light, run 1, well b: 97590
CG42490 (retired record), induced reporter light, run 1, well b: 72510
